These are yes or no findings as the source states them, for the method shown. Binding seen in cells or lysates may run through a third protein. Here binding means that the protein was enriched with, or labelled near, the bait; the list need not be complete. Sequences can lack the tags named with a protein. Blank lines part the entries; values can stand above or below the binder they belong to.
Target: T1, FLAG-BirA*-CCP6 (cytosolic carboxypeptidase 6 fused to FLAG-tagged BirA*) (human) (UniProt Q5VU57)
T1 sequence: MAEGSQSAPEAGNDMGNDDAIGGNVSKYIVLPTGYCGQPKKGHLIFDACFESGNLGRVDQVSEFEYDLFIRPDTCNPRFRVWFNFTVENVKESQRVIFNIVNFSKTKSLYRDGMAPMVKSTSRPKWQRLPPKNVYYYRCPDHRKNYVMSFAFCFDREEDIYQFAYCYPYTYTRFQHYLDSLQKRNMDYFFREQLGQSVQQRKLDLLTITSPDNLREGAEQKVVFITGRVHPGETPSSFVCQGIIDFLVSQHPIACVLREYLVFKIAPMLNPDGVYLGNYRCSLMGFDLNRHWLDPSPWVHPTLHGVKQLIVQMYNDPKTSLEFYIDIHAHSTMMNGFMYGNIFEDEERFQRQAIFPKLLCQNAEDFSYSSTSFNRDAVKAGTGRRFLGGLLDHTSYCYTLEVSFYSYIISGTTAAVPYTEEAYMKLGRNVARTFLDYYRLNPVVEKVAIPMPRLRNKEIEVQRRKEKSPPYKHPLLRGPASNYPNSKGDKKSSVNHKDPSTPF
Experiment: proximity labelling; BioID in Flp-In T-REX 293 stable cell pools expressing BirA*-CCP6; tetracycline 1 ug/mL 24 h, then 50 uM biotin 24 h; lysis in 2% SDS, 8 M urea; streptavidin agarose, on-bead trypsin, LC-MS/MS, LFQ; enrichment against GFP-BirA* (t-test, FDR 0.05); three biological replicates

binding: binds
B1: OFD1 (protein, UniProt O75665 1-1012)
chain: MMAQSNMFTVADVLSQDELRKKLYQTFKDRGILDTLKTQLRNQLIHELMHPVLSGELQPRSISVEGSSLLIGASNSLVADHLQRCGYEYSLSVFFPESGLAKEKVFTMQDLLQLIKINPTSSLYKSLVSGSDKENQKGFLMHFLKELAEYHQAKESCNMETQTSSTFNRDSLAEKLQLIDDQFADAYPQRIKFESLEIKLNEYKREIEEQLRAEMCQKLKFFKDTEIAKIKMEAKKKYEKELTMFQNDFEKACQAKSEALVLREKSTLERIHKHQEIETKEIYAQRQLLLKDMDLLRGREAELKQRVEAFELNQKLQEEKHKSITEALRRQEQNIKSFEETYDRKLKNELLKYQLELKDDYIIRTNRLIEDERKNKEKAVHLQEELIAINSKKEELNQSVNRVKELELELESVKAQSLAITKQNHMLNEKVKEMSDYSLLKEEKLELLAQNKLLKQQLEESRNENLRLLNRLAQPAPELAVFQKELRKAEKAIVVEHEEFESCRQALHKQLQDEIEHSAQLKAQILGYKASVKSLTTQVADLKLQLKQTQTALENEVYCNPKQSVIDRSVNGLINGNVVPCNGEISGDFLNNPFKQENVLARMVASRITNYPTAWVEGSSPDSDLEFVANTKARVKELQQEAERLEKAFRSYHRRVIKNSAKSPLAAKSPPSLHLLEAFKNITSSSPERHIFGEDRVVSEQPQVGTLEERNDVVEALTGSAASRLRGGTSSRRLSSTPLPKAKRSLESEMYLEGLGRSHIASPSPCPDRMPLPSPTESRHSLSIPPVSSPPEQKVGLYRRQTELQDKSEFSDVDKLAFKDNEEFESSFESAGNMPRQLEMGGLSPAGDMSHVDAAAAAVPLSYQHPSVDQKQIEEQKEEEKIREQQVKERRQREERRQSNLQEVLERERRELEKLYQERKMIEESLKIKIKKELEMENELEMSNQEIKDKSAHSENPLEKYMKIIQQEQDQESADKSSKKMVQEGSLVDTLQSSDKVESLTGFSHEELDDSW

binding: binds
B2: NUDCD3 (protein, UniProt Q8IVD9 1-361)
chain: METGAAELYDQALLGILQHVGNVQDFLRVLFGFLYRKTDFYRLLRHPSDRMGFPPGAAQALVLQVFKTFDHMARQDDEKRRQELEEKIRRKEEEEAKTVSAAAAEKEPVPVPVQEIEIDSTTELDGHQEVEKVQPPGPVKEMAHGSQEAEAPGAVAGAAEVPREPPILPRIQEQFQKNPDSYNGAVRENYTWSQDYTDLEVRVPVPKHVVKGKQVSVALSSSSIRVAMLEENGERVLMEGKLTHKINTESSLWSLEPGKCVLVNLSKVGEYWWNAILEGEEPIDIDKINKERSMATVDEEEQAVLDRLTFDYHQKLQGKPQSHELKVHEMLKKGWDAEGSPFRGQRFDPAMFNISPGAVQF

binding: binds
B3: SSX2IP (protein, UniProt Q9Y2D8 1-614)
chain: MGDWMTVTDPGLSSESKTISQYTSETKMSPSSLYSQQVLCSSIPLSKNVHSFFSAFCTEDNIEQSISYLDQELTTFGFPSLYEESKGKETKRELNIVAVLNCMNELLVLQRKNLLAQENVETQNLKLGSDMDHLQSCYSKLKEQLETSRREMIGLQERDRQLQCKNRNLHQLLKNEKDEVQKLQNIIASRATQYNHDMKRKEREYNKLKERLHQLVMNKKDKKIAMDILNYVGRADGKRGSWRTGKTEARNEDEMYKILLNDYEYRQKQILMENAELKKVLQQMKKEMISLLSPQKKKPRERVDDSTGTVISDVEEDAGELSRESMWDLSCETVREQLTNSIRKQWRILKSHVEKLDNQVSKVHLEGFNDEDVISRQDHEQETEKLELEIQQCKEMIKTQQQLLQQQLATAYDDDTTSLLRDCYLLEEKERLKEEWSLFKEQKKNFERERRSFTEAAIRLGLERKAFEEERASWLKQQFLNMTTFDHQNSENVKLFSAFSGSSDWDNLIVHSRQPQKKPHSVSNGSPVCMSKLTKSLPASPSTSDFCQTRSCISEHSSINVLNITAEEIKPNQVGGECTNQKWSVASRPGSQEGCYSGCSLSYTNSHVEKDDLP

— PMC9867282
